Here are results for two molecules from publication PMC5681548.

In test [1] the target is T1, KH-Type Splicing Regulatory Protein (KSRP) (human (endogenous in THP-1 and 293T)) (UniProt Q92945).
T1 sequence: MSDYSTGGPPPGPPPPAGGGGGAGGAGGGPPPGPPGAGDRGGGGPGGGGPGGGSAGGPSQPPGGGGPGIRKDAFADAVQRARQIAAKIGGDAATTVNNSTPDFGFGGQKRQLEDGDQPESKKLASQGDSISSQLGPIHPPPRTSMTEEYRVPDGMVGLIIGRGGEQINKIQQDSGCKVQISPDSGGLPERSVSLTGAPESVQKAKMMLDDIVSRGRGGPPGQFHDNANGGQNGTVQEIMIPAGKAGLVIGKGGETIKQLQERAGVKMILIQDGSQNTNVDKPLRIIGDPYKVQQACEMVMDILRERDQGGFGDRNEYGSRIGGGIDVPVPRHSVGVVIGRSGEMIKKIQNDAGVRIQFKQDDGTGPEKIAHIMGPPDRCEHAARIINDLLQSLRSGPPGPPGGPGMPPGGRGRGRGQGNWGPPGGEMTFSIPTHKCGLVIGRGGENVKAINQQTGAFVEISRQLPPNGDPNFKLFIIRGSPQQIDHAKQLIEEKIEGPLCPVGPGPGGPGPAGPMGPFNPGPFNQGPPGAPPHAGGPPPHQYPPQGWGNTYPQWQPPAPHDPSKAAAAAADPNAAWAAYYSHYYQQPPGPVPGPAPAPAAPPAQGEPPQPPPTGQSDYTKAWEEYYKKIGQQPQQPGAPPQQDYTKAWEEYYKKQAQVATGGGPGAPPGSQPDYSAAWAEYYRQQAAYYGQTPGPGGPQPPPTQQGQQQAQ
As to the kind of experiment: proximity ligation; in situ PLA in fixed, permeabilised 293T cells; anti-KSRP paired with rabbit anti-Drosha or rabbit anti-DGCR8; anti-KSRP with normal rabbit IgG as negative control; dots per cell counted in at least 100 cells.

Test [2] addresses T1, KH-Type Splicing Regulatory Protein (KSRP) (human (endogenous in THP-1 and 293T)). Put plainly: co-IP; endogenous proteins of THP-1 cells; KSRP immunoprecipitates incubated with or without RNAse A (0.1 mg/mL) at 37 °C for 20 min; blots for Drosha, DGCR8 and KSRP.

No constants are given. Whether binding was seen depends on the method and setting. In cells and extracts the contact can be indirect. Some entries that bind do so weakly or less than the wild type.

B1: Drosha (enzyme, UniProt Q9NRR4 1-1374)
chain: MMQGNTCHRMSFHPGRGCPRGRGGHGARPSAPSFRPQNLRLLHPQQPPVQYQYEPPSAPSTTFSNSPAPNFLPPRPDFVPFPPPMPPSAQGPLPPCPIRPPFPNHQMRHPFPVPPCFPPMPPPMPCPNNPPVPGAPPGQGTFPFMMPPPSMPHPPPPPVMPQQVNYQYPPGYSHHNFPPPSFNSFQNNPSSFLPSANNSSSPHFRHLPPYPLPKAPSERRSPERLKHYDDHRHRDHSHGRGERHRSLDRRERGRSPDRRRQDSRYRSDYDRGRTPSRHRSYERSRERERERHRHRDNRRSPSLERSYKKEYKRSGRSYGLSVVPEPAGCTPELPGEIIKNTDSWAPPLEIVNHRSPSREKKRARWEEEKDRWSDNQSSGKDKNYTSIKEKEPEETMPDKNEEEEEELLKPVWIRCTHSENYYSSDPMDQVGDSTVVGTSRLRDLYDKFEEELGSRQEKAKAARPPWEPPKTKLDEDLESSSESECESDEDSTCSSSSDSEVFDVIAEIKRKKAHPDRLHDELWYNDPGQMNDGPLCKCSAKARRTGIRHSIYPGEEAIKPCRPMTNNAGRLFHYRITVSPPTNFLTDRPTVIEYDDHEYIFEGFSMFAHAPLTNIPLCKVIRFNIDYTIHFIEEMMPENFCVKGLELFSLFLFRDILELYDWNLKGPLFEDSPPCCPRFHFMPRFVRFLPDGGKEVLSMHQILLYLLRCSKALVPEEEIANMLQWEELEWQKYAEECKGMIVTNPGTKPSSVRIDQLDREQFNPDVITFPIIVHFGIRPAQLSYAGDPQYQKLWKSYVKLRHLLANSPKVKQTDKQKLAQREEALQKIRQKNTMRREVTVELSSQGFWKTGIRSDVCQHAMMLPVLTHHIRYHQCLMHLDKLIGYTFQDRCLLQLAMTHPSHHLNFGMNPDHARNSLSNCGIRQPKYGDRKVHHMHMRKKGINTLINIMSRLGQDDPTPSRINHNERLEFLGDAVVEFLTSVHLYYLFPSLEEGGLATYRTAIVQNQHLAMLAKKLELDRFMLYAHGPDLCRESDLRHAMANCFEALIGAVYLEGSLEEAKQLFGRLLFNDPDLREVWLNYPLHPLQLQEPNTDRQLIETSPVLQKLTEFEEAIGVIFTHVRLLARAFTLRTVGFNHLTLGHNQRMEFLGDSIMQLVATEYLFIHFPDHHEGHLTLLRSSLVNNRTQAKVAEELGMQEYAITNDKTKRPVALRTKTLADLLESFIAALYIDKDLEYVHTFMNVCFFPRLKEFILNQDWNDPKSQLQQCCLTLRTEGKEPDIPLYKTLQTVGPSHARTYTVAVYFKGERIGCGKGPSIQQAEMGAAMDALEKYNFPQMAHQKRFIERKYRQELKEMRWEREHQEREPDETEDIKK
For B1, the binding result in test [1] and in test [2] was “binds” each time.

B2: DGCR8 (protein, UniProt Q8WYQ5 1-773)
chain: METDESPSPLPCGPAGEAVMESRARPFQALPREQSPPPPLQTSSGAEVMDVGSGGDGQSELPAEDPFNFYGASLLSKGSFSKGRLLIDPNCSGHSPRTARHAPAVRKFSPDLKLLKDVKISVSFTESCRSKDRKVLYTGAERDVRAECGLLLSPVSGDVHACPFGGSVGDGVGIGGESADKKDEENELDQEKRVEYAVLDELEDFTDNLELDEEGAGGFTAKAIVQRDRVDEEALNFPYEDDFDNDVDALLEEGLCAPKKRRTEEKYGGDSDHPSDGETSVQPMMTKIKTVLKSRGRPPTEPLPDGWIMTFHNSGVPVYLHRESRVVTWSRPYFLGTGSIRKHDPPLSSIPCLHYKKMKDNEEREQSSDLTPSGDVSPVKPLSRSAELEFPLDEPDSMGADPGPPDEKDPLGAEAAPGALGQVKAKVEVCKDESVDLEEFRSYLEKRFDFEQVTVKKFRTWAERRQFNREMKRKQAESERPILPANQKLITLSVQDAPTKKEFVINPNGKSEVCILHEYMQRVLKVRPVYNFFECENPSEPFGASVTIDGVTYGSGTASSKKLAKNKAARATLEILIPDFVKQTSEEKPKDSEELEYFNHISIEDSRVYELTSKAGLLSPYQILHECLKRNHGMGDTSIKFEVVPGKNQKSEYVMACGKHTVRGWCKNKRVGKQLASQKILQLLHPHVKNWGSLLRMYGRESSKMVKQETSDKSVIELQQYAKKNKPNLHILSKLQEEMKRLAEEREETRKKPKMSIVASAQPGGEPLCTVDV
In the case of B2, the binding entry in test [1] and in test [2] was “binds” throughout.
